Measurements taken from PubChem BioAssay AID1487 (National Center for Advancing Translational Sciences (NCATS), 2009).
Where “and” joins values, the source holds several entries; their conditions need not be identical. Identical values can stand only once. This is one part of the list. The main result of the screen is listed elsewhere. These columns were measured beside it and carry no call. Compounds called inactive in the main read-out are mostly missing here. The note in brackets gives the kind of curve behind each potency; many fits are weak.

Assay: qHTS Assay for Modulators of Lamin A Splicing
Conditions: HeLa LMNA splicing GFP/RFP minigene ratio, 48 h
In short: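 S3 HeLa stable clones carrying a lamin A-EGFP splicing minigene plus DsRed2 were seeded at 600 cells/well in Opti-MEM with 2% FBS, pin-dosed and incubated 48 h at 37°C. Acumen cytometry (488 nm) gave the GFP/RFP total-intensity ratio.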

[1] = measured here: RFP viability control channel
[2] = measured here: GFP splicing reporter channel

C/C(=N/N=C1/NC(=O)CC(C(=O)Nc2ccccc2)S1)c1cccs1 (centres undefined)
AC50 [1]: 2 µM [rising, partial curve]

O=C(Cn1cc(C(F)(F)F)ccc1=O)N/N=C/c1cccc(Cl)c1Cl
AC50 [2]: 5.01 µM [rising, partial curve, poor fit]

Cc1nn(-c2ccccc2)c(N2CCCC2)c1/C=N/Nc1ccc(S(N)(=O)=O)cc1[N+](=O)[O-]
AC50 [1]: 14.1 µM [rising, single point]

Cc1sc2ncnc(NC3CCN(Cc4ccccc4)CC3)c2c1C
AC50 [2]: 1 µM [falling, full curve, poor fit]

Cc1ccc2onc(CC(=O)N3CCN(c4ccc(F)cc4)CC3)c2c1
AC50 [2]: 12.6 µM [falling, single point]
AC50 [1]: 35.5 µM [falling, single point]

Cc1cc(O)c2ccccc2c1O
AC50 [2]: 20 µM [rising, single point]
AC50 [1]: 11.2 µM [falling, partial curve]

O=C1C=C(Nc2ccc(Cl)cc2)CC(c2ccccc2)C1 (centres undefined)
AC50 [1]: 8.91 µM [rising, partial curve]

O=C(Nc1ccc(Oc2ccc(C(F)(F)F)cn2)c(Cl)c1)C1CC1
AC50 [2]: 31.6 µM [falling, partial curve]
AC50 [1]: 31.6 µM [falling, partial curve]

Cc1cc(N2CCCC2)nc(N2C3CCC2CC(O)(c2ccc(F)cc2)C3)n1 (centres undefined)
AC50 [2]: 15.8 µM [falling, partial curve, poor fit]
AC50 [1]: 7.08 µM [falling, full curve, poor fit]

Fc1ccc(Nc2nc(SCc3ccc(Cl)cc3)nc3ccccc23)cc1
AC50 [2]: 35.5 µM [falling, single point]
AC50 [1]: 35.5 µM [falling, partial curve, poor fit]

O=S(=O)(NCC(c1ccco1)S(=O)(=O)c1ccccc1)c1cc(F)ccc1F (centres undefined)
AC50 [1]: 35.5 µM [rising, single point]

COc1cnc(-c2ccccn2)nc1NC(C)C
AC50 [2]: 35.5 µM [rising, partial curve, poor fit]
AC50 [1]: 35.5 µM [rising, partial curve]

NCCOB(c1ccccc1)c1ccccc1
AC50 [2]: 35.5 µM [rising, single point]

O=C(C/C(=N\NC(=O)c1ccccc1Br)C(F)(F)F)c1cccs1
AC50 [2]: 17.8 µM [rising, single point]
AC50 [1]: 22.4 µM [rising, single point]

CC(=O)Oc1ccc2occ(/C=N/c3cc(=O)[nH]c(=S)[nH]3)c(=O)c2c1
AC50 [2]: 2.24 µM [rising, partial curve, poor fit]
AC50 [1]: 0.112 µM [rising, full curve, poor fit]

Cc1nn(C)cc1C1Nc2ccccc2C(=O)N1O (centres undefined)
AC50 [1]: 1.58 µM [rising, partial curve, poor fit]

N[C@H](Cc1cc(I)c(Oc2cc(I)c(O)c(I)c2)c(I)c1)C(=O)O
AC50 [2]: 0.355 µM [falling, partial curve]
AC50 [1]: 0.0891 µM [falling, full curve, poor fit]

COC(=O)Nc1ccc(S(=O)(=O)Nc2cccc3ccccc23)cc1
AC50 [1]: 12.6 µM [rising, partial curve]

COc1ccccc1Cn1c(-c2ccccc2OC)nc2ccccc21
AC50 [2]: 25.1 µM [rising, single point]
AC50 [1]: 31.6 µM [rising, single point]

O=c1ccc2ccccc2o1
AC50 [2]: 3.55 µM [rising, single point] and 4.47 µM [falling, partial curve, poor fit]
AC50 [1]: 0.794 µM [falling, full curve, poor fit]

Cc1cccc(N2CCN(CC(=O)NCC3CCCCC3)CC2)c1C
AC50 [2]: 15.8 µM [rising, single point]
AC50 [1]: 22.4 µM [rising, single point]

COc1ccc(OC)c(NC(=O)Cc2nn(C)c(=O)c3ccccc23)c1
AC50 [2]: 7.94 µM [rising, partial curve]
AC50 [1]: 11.2 µM [rising, partial curve]

Cc1ccc(C(=O)c2cn[nH]c2-c2ccccc2O)cc1
AC50 [1]: 8.91 µM [rising, partial curve, poor fit]

CC(C)C(C(=O)NCc1ccco1)N(C(=O)CNS(=O)(=O)c1ccccc1)C1CCCC1 (centres undefined)
AC50 [1]: 0.398 µM [falling, full curve, poor fit]

NC(=O)CSc1nnnn1-c1cccc(Cl)c1
AC50 [2]: 0.0251 µM [falling, full curve, poor fit]
AC50 [1]: 0.0355 µM [falling, full curve]

CC(Nc1oc(-c2ccco2)nc1C#N)c1ccccc1 (centres undefined)
AC50 [1]: 4.47 µM [rising, full curve, poor fit]

Cc1ccccc1CN1CCC(CNC(=O)c2cc3ccc4cccnc4c3[nH]2)CC1
AC50 [2]: 0.00891 µM [falling, full curve, poor fit]

C=CCn1c(CCC(O)CCCCC)n[nH]c1=S (centres undefined)
AC50 [2]: 14.1 µM [rising, single point]
AC50 [1]: 35.5 µM [rising, single point]

O=C(CCc1c[nH]c2ccccc12)N1CCN(c2ccc(O)cc2)CC1
AC50 [1]: 10 µM [rising, partial curve, poor fit]

COC(=O)C1=C(C)N(CCCC(=O)O)C(=O)NC1c1cccs1 (centres undefined)
AC50 [2]: 0.0282 µM [falling, full curve, poor fit]

NC(=O)[C@@H]1CCNc2c(I)cc([N+](=O)[O-])cc2C(=O)N[C@@H](CCC(=O)O)C(=O)N[C@@H](CO)C(=O)N1
AC50 [2]: 0.00501 µM [falling, full curve, poor fit]
AC50 [1]: 0.00501 µM [falling, full curve, poor fit]

CN(C)c1ccnc2sc(C(=O)NCc3ccccc3)c(N)c12
AC50 [1]: 17.8 µM [rising, single point]

Cc1ccc(-n2c(=S)[nH]c3[nH]ncc3c2=O)cc1
AC50 [1]: 0.251 µM [falling, full curve, poor fit]

COc1ccc(-c2cc(C(F)(F)F)n3nc(C(=O)OC(C)C)cc3n2)cc1
AC50 [2]: 0.1 µM [rising, full curve, poor fit]

COc1ccc(-c2cc(=O)c(C(=O)c3ccc(C)cc3)n[nH]2)cc1
AC50 [1]: 20 µM [falling, partial curve, poor fit]

Cc1nn(Cc2ccccc2)c(Cl)c1/C=C/C(=O)OC(C)C(=O)N1CCCC1 (centres undefined)
AC50 [2]: 0.02 µM [falling, full curve, poor fit]

CC(=O)c1c(C)[nH]c(C(=O)OCC(=O)Nc2cc(C(F)(F)F)ccc2N2CCOCC2)c1C
AC50 [2]: 35.5 µM [rising, single point]
AC50 [1]: 35.5 µM [rising, single point]

COC(=O)CCC/C=C1/SCC(NC(=O)c2ccccc2)C1O (centres undefined)
AC50 [2]: 0.282 µM [rising, full curve, poor fit]

Cn1cnnc1SCC(=O)Nc1ccc2nc(SCc3cccc4ccccc34)sc2c1
AC50 [2]: 17.8 µM [rising, single point]

Cc1cc(Br)ccc1NC(=O)CN1C(=O)C2C3CC(c4ccccc4)C(C3)C2C1=O (centres undefined)
AC50 [2]: 35.5 µM [falling, single point]
AC50 [1]: 25.1 µM [falling, single point]

Clc1ccccc1CN(Cc1ccccc1)C(c1cccs1)c1nnnn1C1CCCC1 (centres undefined)
AC50 [2]: 14.1 µM [rising, single point]
AC50 [1]: 31.6 µM [rising, single point]

O=C(C1CCCN1C(=O)c1cccs1)N1CCc2ccccc21 (centres undefined)
AC50 [2]: 0.224 µM [rising, full curve, poor fit]

CC1CC(C)CN(S(=O)(=O)c2ccc(C(=O)N(c3ccccn3)C3CCCCC3)cc2)C1 (centres undefined)
AC50 [1]: 0.0708 µM [falling, full curve]

CC1(C)CC(=O)C2=C(C1)OC(N)=C(C#N)C2c1cn(-c2ccccc2)nc1-c1ccc(F)cc1 (centres undefined)
AC50 [1]: 7.08 µM [rising, partial curve, poor fit]

CN(C)CCCN1c2ccccc2Sc2ccc(Cl)cc21
AC50 [1]: 224 nM [rising, full curve, poor fit] and 15.8 nM [falling, full curve] and 35.5 µM [rising, single point]

Cc1cccc(N=N/C(=C\O)C(=O)c2cccs2)c1
AC50 [2]: 11.2 µM [falling, partial curve, poor fit]
AC50 [1]: 35.5 µM [falling, single point]

COc1ccc(NC(=O)c2cc(=O)c3ccccc3o2)cn1
AC50 [1]: 11.2 µM [rising, single point]

COc1ccc(S(=O)(=O)Nc2cc(C(=O)NC(C)C)ccc2N2CCOCC2)cc1
AC50 [1]: 15.8 µM [rising, single point]

COc1cccc2c1OC[C@@H](CO)[C@H]2N(C)C(=O)Nc1ccc(Cl)cc1Cl
AC50 [1]: 15.8 µM [falling, partial curve]

O=C1CCC2CCCCC2(O)O1 (centres undefined)
AC50 [1]: 10 µM [falling, partial curve]

COc1ccccc1NS(=O)(=O)c1cccc(NC(=O)Nc2cccc(Cl)c2)c1
AC50 [2]: 22.4 µM [falling, single point]

O=C1c2ccccc2S(=O)(=O)N1CC(O)COc1ccc(Cl)cc1 (centres undefined)
AC50 [1]: 11.2 µM [rising, partial curve]

Cc1nn(CC2CC2)c(=O)n1-c1ccc(F)cc1
AC50 [2]: 0.00398 µM [rising, full curve, poor fit]

Clc1ccc(Cl)c2sc(N3CCCC3)nc12
AC50 [1]: 14.1 µM [falling, partial curve, poor fit]
